Results on two substances are retold here after patent publication US20240309360A1, “TRANS-ACTIVATORS AND METHODS AND USE THEREOF” (THE GOVERNING COUNCIL OF THE UNIVERSITY OF TORONTO, priority 2021, published 2024).

Chains of the proteins cited; added tags and fusions are not shown. Lines headed by an entry give the natural chain unless they say otherwise; changes in a name come on top. A line that says so, or that is headed by a name, gives the form on record, which may keep a tag or linker. Residues count along the entry.
UniProt Q92793, residues 2-2442: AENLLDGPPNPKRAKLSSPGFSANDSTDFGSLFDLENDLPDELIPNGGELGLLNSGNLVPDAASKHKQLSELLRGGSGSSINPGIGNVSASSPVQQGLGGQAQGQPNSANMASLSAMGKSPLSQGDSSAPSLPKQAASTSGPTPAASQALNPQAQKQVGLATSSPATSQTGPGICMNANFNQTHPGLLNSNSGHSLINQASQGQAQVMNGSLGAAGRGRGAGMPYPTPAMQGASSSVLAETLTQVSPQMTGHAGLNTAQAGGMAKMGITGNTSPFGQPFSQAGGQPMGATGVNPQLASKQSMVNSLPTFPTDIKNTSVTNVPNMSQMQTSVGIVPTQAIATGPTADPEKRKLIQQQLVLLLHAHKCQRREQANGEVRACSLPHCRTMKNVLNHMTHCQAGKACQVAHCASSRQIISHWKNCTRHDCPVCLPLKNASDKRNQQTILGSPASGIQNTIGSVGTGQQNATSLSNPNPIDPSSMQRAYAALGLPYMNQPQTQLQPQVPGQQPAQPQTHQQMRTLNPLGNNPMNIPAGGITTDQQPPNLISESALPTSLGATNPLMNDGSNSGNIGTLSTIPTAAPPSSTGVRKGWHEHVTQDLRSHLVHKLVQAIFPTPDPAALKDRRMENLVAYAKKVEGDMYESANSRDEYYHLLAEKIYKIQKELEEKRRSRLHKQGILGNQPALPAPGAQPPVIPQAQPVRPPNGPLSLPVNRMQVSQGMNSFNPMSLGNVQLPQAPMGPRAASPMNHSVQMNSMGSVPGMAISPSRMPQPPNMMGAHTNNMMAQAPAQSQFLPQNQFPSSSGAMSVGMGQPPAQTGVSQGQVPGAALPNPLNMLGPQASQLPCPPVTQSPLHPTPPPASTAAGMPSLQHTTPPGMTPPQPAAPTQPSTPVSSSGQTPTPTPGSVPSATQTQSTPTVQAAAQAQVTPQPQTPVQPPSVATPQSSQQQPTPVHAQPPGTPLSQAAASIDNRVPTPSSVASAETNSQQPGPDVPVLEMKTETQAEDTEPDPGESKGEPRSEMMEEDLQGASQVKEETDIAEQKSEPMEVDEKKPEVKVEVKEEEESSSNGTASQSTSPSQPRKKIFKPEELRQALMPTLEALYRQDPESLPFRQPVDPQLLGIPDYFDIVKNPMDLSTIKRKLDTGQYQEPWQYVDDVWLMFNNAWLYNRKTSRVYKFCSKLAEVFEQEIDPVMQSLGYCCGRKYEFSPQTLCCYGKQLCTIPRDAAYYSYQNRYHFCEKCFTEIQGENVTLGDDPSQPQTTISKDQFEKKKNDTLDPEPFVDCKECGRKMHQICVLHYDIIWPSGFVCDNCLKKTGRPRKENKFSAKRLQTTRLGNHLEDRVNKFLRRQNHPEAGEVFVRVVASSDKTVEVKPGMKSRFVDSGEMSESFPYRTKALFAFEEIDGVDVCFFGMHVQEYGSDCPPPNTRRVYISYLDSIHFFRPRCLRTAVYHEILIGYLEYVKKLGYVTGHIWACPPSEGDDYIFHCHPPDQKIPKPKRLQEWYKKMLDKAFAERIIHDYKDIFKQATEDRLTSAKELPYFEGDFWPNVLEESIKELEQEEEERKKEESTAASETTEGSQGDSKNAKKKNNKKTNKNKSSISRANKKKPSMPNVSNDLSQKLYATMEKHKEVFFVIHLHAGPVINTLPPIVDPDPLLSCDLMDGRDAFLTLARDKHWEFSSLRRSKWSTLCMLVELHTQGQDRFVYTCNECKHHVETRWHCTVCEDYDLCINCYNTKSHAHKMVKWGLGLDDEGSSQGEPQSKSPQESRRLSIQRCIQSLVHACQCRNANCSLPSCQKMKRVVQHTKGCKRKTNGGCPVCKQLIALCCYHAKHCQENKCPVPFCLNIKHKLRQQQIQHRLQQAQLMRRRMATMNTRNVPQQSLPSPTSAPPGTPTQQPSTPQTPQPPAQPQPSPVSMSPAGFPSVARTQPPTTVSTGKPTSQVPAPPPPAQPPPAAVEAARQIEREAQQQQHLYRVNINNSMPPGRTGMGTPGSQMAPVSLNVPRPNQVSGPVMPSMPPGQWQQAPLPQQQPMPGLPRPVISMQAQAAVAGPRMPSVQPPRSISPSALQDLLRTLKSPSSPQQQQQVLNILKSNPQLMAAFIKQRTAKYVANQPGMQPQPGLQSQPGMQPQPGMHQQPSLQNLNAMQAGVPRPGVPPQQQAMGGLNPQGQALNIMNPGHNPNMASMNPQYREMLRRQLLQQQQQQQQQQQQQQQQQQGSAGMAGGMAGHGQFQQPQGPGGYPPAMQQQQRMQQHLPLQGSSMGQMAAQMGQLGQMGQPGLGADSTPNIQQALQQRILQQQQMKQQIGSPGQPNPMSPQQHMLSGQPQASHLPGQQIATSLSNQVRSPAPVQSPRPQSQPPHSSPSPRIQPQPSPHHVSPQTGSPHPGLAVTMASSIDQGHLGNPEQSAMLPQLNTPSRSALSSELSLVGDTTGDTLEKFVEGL
C10orf12 (Q96JN0, form named): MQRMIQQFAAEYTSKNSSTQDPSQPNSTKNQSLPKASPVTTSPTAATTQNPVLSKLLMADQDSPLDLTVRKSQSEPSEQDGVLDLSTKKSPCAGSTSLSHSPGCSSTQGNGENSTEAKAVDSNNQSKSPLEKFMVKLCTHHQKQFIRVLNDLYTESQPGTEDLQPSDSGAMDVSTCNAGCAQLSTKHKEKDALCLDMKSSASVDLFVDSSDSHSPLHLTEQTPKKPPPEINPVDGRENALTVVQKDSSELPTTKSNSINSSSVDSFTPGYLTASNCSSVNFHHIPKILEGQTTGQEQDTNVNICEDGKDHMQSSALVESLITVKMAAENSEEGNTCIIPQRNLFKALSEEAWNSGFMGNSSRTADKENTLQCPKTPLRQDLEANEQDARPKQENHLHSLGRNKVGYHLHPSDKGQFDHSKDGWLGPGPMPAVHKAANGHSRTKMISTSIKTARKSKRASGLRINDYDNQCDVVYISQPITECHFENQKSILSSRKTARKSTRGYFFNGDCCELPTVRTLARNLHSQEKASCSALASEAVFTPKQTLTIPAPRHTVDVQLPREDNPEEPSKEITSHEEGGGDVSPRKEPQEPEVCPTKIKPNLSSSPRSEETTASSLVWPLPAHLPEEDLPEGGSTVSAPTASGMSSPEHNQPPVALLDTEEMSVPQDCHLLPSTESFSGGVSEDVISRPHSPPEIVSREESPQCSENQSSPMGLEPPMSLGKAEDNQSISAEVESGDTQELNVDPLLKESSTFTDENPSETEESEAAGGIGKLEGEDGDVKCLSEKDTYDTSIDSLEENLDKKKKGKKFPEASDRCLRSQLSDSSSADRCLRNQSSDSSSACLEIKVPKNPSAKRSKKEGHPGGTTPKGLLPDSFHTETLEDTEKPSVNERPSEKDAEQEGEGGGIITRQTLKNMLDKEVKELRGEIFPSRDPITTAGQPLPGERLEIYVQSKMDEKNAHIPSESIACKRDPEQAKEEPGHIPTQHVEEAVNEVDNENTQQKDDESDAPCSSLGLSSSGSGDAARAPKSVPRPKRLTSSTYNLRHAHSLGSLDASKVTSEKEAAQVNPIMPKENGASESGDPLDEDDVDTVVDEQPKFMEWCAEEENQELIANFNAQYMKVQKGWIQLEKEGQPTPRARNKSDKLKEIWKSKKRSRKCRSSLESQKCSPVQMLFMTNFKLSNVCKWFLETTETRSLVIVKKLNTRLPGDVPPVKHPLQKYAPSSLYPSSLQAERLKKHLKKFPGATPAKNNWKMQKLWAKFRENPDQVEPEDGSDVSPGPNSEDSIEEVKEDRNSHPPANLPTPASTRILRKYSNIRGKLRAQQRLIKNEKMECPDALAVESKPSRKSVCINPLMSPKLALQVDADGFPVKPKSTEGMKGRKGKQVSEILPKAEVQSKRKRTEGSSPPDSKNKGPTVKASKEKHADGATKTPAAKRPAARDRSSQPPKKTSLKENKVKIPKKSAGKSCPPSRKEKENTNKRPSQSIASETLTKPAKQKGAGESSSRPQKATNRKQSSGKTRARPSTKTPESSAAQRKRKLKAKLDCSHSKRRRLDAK
UniProt Q6ZUJ4, residues 80-267: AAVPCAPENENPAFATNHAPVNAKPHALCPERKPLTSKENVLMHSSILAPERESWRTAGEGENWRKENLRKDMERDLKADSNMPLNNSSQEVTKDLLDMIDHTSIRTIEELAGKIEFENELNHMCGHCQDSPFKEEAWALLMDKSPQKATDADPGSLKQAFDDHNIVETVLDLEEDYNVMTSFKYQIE
UniProt Q15022: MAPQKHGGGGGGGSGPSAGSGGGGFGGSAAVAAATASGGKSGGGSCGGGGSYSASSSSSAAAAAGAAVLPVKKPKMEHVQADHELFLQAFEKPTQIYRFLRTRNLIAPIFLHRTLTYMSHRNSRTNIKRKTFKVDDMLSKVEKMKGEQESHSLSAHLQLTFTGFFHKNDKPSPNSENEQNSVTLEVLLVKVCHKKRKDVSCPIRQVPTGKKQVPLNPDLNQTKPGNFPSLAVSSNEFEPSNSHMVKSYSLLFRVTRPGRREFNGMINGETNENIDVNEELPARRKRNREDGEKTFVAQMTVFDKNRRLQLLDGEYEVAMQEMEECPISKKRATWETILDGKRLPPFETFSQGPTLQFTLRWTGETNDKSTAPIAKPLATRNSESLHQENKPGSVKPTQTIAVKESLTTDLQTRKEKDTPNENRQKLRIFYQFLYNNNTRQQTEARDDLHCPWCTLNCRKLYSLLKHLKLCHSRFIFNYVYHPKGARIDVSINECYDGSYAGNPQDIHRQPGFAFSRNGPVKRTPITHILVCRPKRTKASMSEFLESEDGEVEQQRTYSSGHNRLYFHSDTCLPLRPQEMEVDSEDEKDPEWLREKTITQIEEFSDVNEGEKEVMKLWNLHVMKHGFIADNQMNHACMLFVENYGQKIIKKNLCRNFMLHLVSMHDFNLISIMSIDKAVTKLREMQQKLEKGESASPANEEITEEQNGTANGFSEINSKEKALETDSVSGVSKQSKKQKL

Results are given in words; binding and its absence hold for the method and conditions named. Binding seen in cells or lysates may run through a third protein. These calls come from enrichment with a bait or labelling near it, and not all partners need be listed.

Some targets named below: CBP (human) (UniProt Q92793); p300 (human) (UniProt Q09472); C10orf12 (human) (UniProt Q96JN0).
Common to all, as to assay: BioID2 proximity labelling, HEK293 cells

In the case of “C-terminal fragment of C3orf62 fused to SRF (C3orf62-Cterm), tagged with BirA-FLAG (from UniProt Q6ZUJ4 80-267)”, the binding result with CBP (human) and with p300 (human) was “binds” throughout.
As for “SUZ12 tagged with BirA-FLAG (from UniProt Q15022 1-739)”, in the assay with C10orf12 (human), the binding result is listed as “binds”.
